These are yes or no findings as the source states them, for the method shown. Some binding calls cover weakened binding; strength is not graded here. Tags and fused reporters may be left off the sequences shown.
Molecular target: human carbamoyl phosphate synthetase (CPS1), mature, N-terminal His6-tag (human) (UniProt P31327)
Assay: crystal structure; crystals of apo CPS1 (2.4 Å, P21, two subunits = one dimer in the asymmetric unit) and of ligand-bound CPS1 (NAG, ADP; 2.6 Å, P1, four subunits = two dimers); both purified

- binding: binds weakly
B1: human carbamoyl phosphate synthetase (CPS1), mature, N-terminal His6-tag (enzyme, UniProt P31327 38-1500)
chain: LLSVKAQTAHIVLEDGTKMKGYSFGHPSSVAGEVVFNTGLGGYPEAITDPAYKGQILTMANPIIGNGGAPDTTALDELGLSKYLESNGIKVSGLLVLDYSKDYNHWLATKSLGQWLQEEKVPAIYGVDTRMLTKIIRDKGTMLGKIEFEGQPVDFVDPNKQNLIAEVSTKDVKVYGKGNPTKVVAVDCGIKNNVIRLLVKRGAEVHLVPWNHDFTKMEYDGILIAGGPGNPALAEPLIQNVRKILESDRKEPLFGISTGNLITGLAAGAKTYKMSMANRGQNQPVLNITNKQAFITAQNHGYALDNTLPAGWKPLFVNVNDQTNEGIMHESKPFFAVQFHPEVTPGPIDTEYLFDSFFSLIKKGKATTITSVLPKPALVASRVEVSKVLILGSGGLSIGQAGEFDYSGSQAVKAMKEENVKTVLMNPNIASVQTNEVGLKQADTVYFLPITPQFVTEVIKAEQPDGLILGMGGQTALNCGVELFKRGVLKEYGVKVLGTSVESIMATEDRQLFSDKLNEINEKIAPSFAVESIEDALKAADTIGYPVMIRSAYALGGLGSGICPNRETLMDLSTKAFAMTNQILVEKSVTGWKEIEYEVVRDADDNCVTVCNMENVDAMGVHTGDSVVVAPAQTLSNAEFQMLRRTSINVVRHLGIVGECNIQFALHPTSMEYCIIEVNARLSRSSALASKATGYPLAFIAAKIALGIPLPEIKNVVSGKTSACFEPSLDYMVTKIPRWDLDRFHGTSSRIGSSMKSVGEVMAIGRTFEESFQKALRMCHPSIEGFTPRLPMNKEWPSNLDLRKELSEPSSTRIYAIAKAIDDNMSLDEIEKLTYIDKWFLYKMRDILNMEKTLKGLNSESMTEETLKRAKEIGFSDKQISKCLGLTEAQTRELRLKKNIHPWVKQIDTLAAEYPSVTNYLYVTYNGQEHDVNFDDHGMMVLGCGPYHIGSSVEFDWCAVSSIRTLRQLGKKTVVVNCNPETVSTDFDECDKLYFEELSLERILDIYHQEACGGCIISVGGQIPNNLAVPLYKNGVKIMGTSPLQIDRAEDRSIFSAVLDELKVAQAPWKAVNTLNEALEFAKSVDYPCLLRPSYVLSGSAMNVVFSEDEMKKFLEEATRVSQEHPVVLTKFVEGAREVEMDAVGKDGRVISHAISEHVEDAGVHSGDATLMLPTQTISQGAIEKVKDATRKIAKAFAISGPFNVQFLVKGNDVLVIECNLRASRSFPFVSKTLGVDFIDVATKVMIGENVDEKHLPTLDHPIIPADYVAIKAPMFSWPRLRDADPILRCEMASTGEVACFGEGIHTAFLKAMLSTGFKIPQKGILIGIQQSFRPRFLGVAEQLHNEGFKLFATEATSDWLNANNVPATPVAWPSQEGQNPSLSSIRKLIRDGSIDLVINLPNNNTKFVHDNYVIRRTAVDSGIPLLTNFQVTKLFAEAVQKSRKVDSKSLFHYRQYSAGKAA

— paper PMC4655335
